No constants are given. Whether binding was seen depends on the method and setting. Binding seen in cells or lysates may run through a third protein. A yes stands for co-enrichment or nearness to the bait. Other partners may have been found. Tags and fused reporters may be left off the sequences shown.
Target: vesicular monoamine transporter-2 (VMAT2) (rat (endogenous in Sprague Dawley rat striatum)) (UniProt Q01827)
Assay: affinity purification with mass spectrometry; Dynabeads with anti-VMAT2 antibody, membrane/endosomal fraction of striatal synaptosomes of saline- and METH-treated rats killed 1 h after treatment (n = 4); SDS-PAGE, in-gel trypsin digest, LC-MS/MS (Q Exactive)

The chains behind the UniProt entries cited, without tags or fusion partners.
UniProt Q01827: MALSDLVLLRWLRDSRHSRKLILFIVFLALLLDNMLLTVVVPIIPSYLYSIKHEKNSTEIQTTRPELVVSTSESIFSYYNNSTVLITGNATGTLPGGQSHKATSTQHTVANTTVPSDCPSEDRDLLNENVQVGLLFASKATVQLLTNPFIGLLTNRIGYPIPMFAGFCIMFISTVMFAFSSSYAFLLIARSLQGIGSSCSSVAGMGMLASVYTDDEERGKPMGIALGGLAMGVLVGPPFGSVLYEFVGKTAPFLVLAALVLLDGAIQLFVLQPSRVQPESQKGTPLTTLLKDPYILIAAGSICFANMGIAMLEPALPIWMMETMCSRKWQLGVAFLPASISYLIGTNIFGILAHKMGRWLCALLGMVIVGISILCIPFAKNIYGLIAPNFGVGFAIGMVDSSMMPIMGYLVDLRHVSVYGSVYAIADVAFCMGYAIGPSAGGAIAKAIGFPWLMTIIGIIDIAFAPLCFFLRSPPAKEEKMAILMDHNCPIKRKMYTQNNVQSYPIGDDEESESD

B1: Sorting nexin-17 (protein, UniProt Q6AYS6 1-470)
chain: MHFSIPETESRSGDSGGSTYVAYNIHVNGVLHCRVRYSQLLGLHEQLRKEYGANVLPAFPPKKLFSLTPAEVEQRREQLEKYMQAVRQDPLLGSSETFNSFLRRAQQETQQVPTEEVSLEVLLSDGQKVLVNVLTSDQTEDVLEAVAAKLDLPDDLIGYFSLFLVREKEDGAFSFVRKLQEFELPYVSVTSLRSQEYKIVLRKSYWDSAYDDDVMENRVGLNLLYAQTVSDIEHGWILVTKEQHRQLKSLQEKVSKKEFLRLAQTLRHYGYLRFDACVADFPEKDCPVVVSAGNSELSLQLRLPGQQLREGSFRVTRMRCWRVTSSVPLPSGGTSTPSRGRGEVRLELAFEYLMSKDRLQWVTITSPQAIMMSICLQSMVDELMVKKSGGSIRKMLRRRVGGNLRRSDSQQAVKSPPLLESPDASRESMVKLSSKLSAVSLRGIGSPSTDASASAVHGNFAFEGIGDEDL
For B1, which binding is on record?
The binding was “binds”.

B2: cell division cycle related-1 (CDCrel-1) (protein, UniProt Q9JJM9 1-369)
chain: MSTGLRYKSKLATPEDKQDIDKQYVGFATLPNQVHRKSVKKGFDFTLMVAGESGLGKSTLVHSLFLTDLYKDRKLLSAEERINQTVEILKHTVDIEEKGVKLKLTIVDTPGFGDAVNNFECWKPITDYVDQQFEQYFRDESGLNRKNIQDNRVHCCLYFISPFGHGLRPVDVGFMKALHEKVNIVPLIAKADCLVPSEIRKLKDRIREEIDKFGIHVYQFPECDSDEDEDFKQQDRELKESAPFAVIGSNTVVEAKGQRVRGRLYPWGIVEVENQAHCDFVKLRNMLIRTHMHDLKDVTCDVHYENYRAHCIQQMTSKLTQDSRMESPIPILPLPTPDSETEKLIRMKDEELRRMQEMLQKMKQRMQDQ
B2 was tested. Which binding did it give?
The binding was “binds”.

B3: Apolipoprotein D (protein, UniProt P23593 21-189)
chain: QSFHLGKCPSPPVQENFDVKKYLGRWYEIEKIPVSFEKGNCIQANYSLMENGNIKVLNKELRPDGTLNQVEGEAKQSNMSEPAKLEVQFFSLMPPAPYWILATDYESYALVYSCTTFFWFFHVDYVWILGRNPYLPPETITYLKYILTSNDIDIAKITTKDQANCPDFL
Which binding does the source give for B3 here?
The binding was “binds”.

B4: Receptor-type tyrosine-protein phosphatase-like N (protein, UniProt Q63259 41-983)
chain: ISAHGCLFDRRLCSHLEVCIQDGLFGQCQAGVGQARPLLQVTSPVLQRLQGVLRQLMSQGLSWHDDLTQYVISQEMERIPRLRPPEPHPRDRSGSVPRRAGPAGELLSQGNPTGSSPAVQGLSRPPGDGNGAGVGSPLSSLQAELLPPLLEHLLMPPQPPHPSLTYEPALLQPYLFQQFGSRDGSRGSESASGVVGHLAKAEDPVLFSRSLSKAILGTHSGHSFGDLTGPSPAQLFQDSGLLYMAQELPVPGRARAPRLPEEGGSSRAEDSSEGHEEEVLGGHGEKSPPQAVQADVSLQRLAAVLAGYGVELRQLTPEQLSTLLTLLQLLPKGTGRHLGGAVNGGADVKKTIEEQMQRGDTADARPPTPLLPGHPTASSTSIKVRQVLSPGFPEPPKTSSPLGISAVLLEKKSPLGQSQPTVVGQPSARPSAEEYGYIVTDQKPLSLVAGVKLLEILAEHVHMTSGSFINISVVGPAVTFRIRHNEQNLSLADVTQQAGLVKSELEAQTGLQILQTGVGQREESAAVLPRQAHGISPMRSLLLTLVALAGVAGLLVALAVALCMRHHSKQRDKERLAALGPEGAHGDTTFEYQDLCRQHMATKSLFNRAEGQPEPSRVSSVSSQFSDAAQASPSSHSSTPSWCEEPAQANMDISTGHMILAYMEDHLRNRDRLAKEWQALCAYQAEPNTCATAQGEGNIKKNRHPDFLPYDHARIKLKVESSPSRSDYINASPIIEHDPRMPAYIATQGPLSHTIADFWQMVWESGCTVIVMLTPLVEDGVKQCDRYWPDEGSSLYHVYEVNLVSEHIWCEDFLVRSFYLKNVQTQETRTLTQFHFLSWPAEGTPASTRPLLDFRRKVNKCYRGRSCPIIVHCSDGAGRTGTYILIDMVLNRMAKGVKEIDIAATLEHVRDQRPGLVRSKDQFEFALTAVAEEVNAILKALPQ
Which binding does the source give for B4 here?
Its binding is “binds”.

B5: Fibrinogen alpha chain (protein, UniProt P06399 37-782)
chain: GPRIVERQPSQCKETDWPFCSDEDWNHKCPSGCRMKGLIDEANQDFTNRINKLKNSLFDFQKNNKDSNSLTRNIMEYLRGDFANANNFDNTFGQVSEDLRRRIQILKRKVIEKAQQIQVLQKDVRDQLIDMKRLEVDIDIKIRSCKGSCSRSVSREINLKDYEGQQKQLEQVIAKDLLPAKDRQYLPAIKMSPVPDLVPGSFKSQLQEGPPEWKALTEMRQMRMELERPGKDGASRGDLPGDSRGDSATRGPGSKIENPMTPGHGGSGYWRPGSSGSGSDGNWGSGTTGSDDTGTWGAGSSRPSSGSGNLKPSNPDWGEFSEFGGSSSPATRKEYHTGKLVTSKGDKELLIGNEKVTSTGTSTTRRSCSKTITKTVLGNDGHREVVKEVVTSDDGSDCGDGMDLGLTHSFSGRLDELSRMHPELGSFYDSRFGSLTSNFKEFGSKTSDSDIFTDIENPSSHVPEFSSSSKTSTVRKQVTKSYKMADEAASEAHQEGDTRTTKRGRARTMRDCDDVLQTHPSGAQNGIFSIKLPGSSKIFSVYCDQETSLGGWLLIQQRMDGSLNFNRTWQDYKRGFGSLNDKGEGEFWLGNDYLHLLTLRGSVLRVELEDWAGKEAYAEYHFRVGSEAEGYALQVSSYQGTAGDALMEGSVEEGTEYTSHSNMQFSTFDRDADQWEENCAEVYGGGWWYNSCQAANLNGIYYPGGTYDPRNNSPYEIENGVLWVPFRGADYSLWAVRMKIRPLVGQ
B5 was tested. Which binding did it give?
Its binding is “binds”.

B6: synaptotagmin IV (protein, UniProt P50232 1-425)
chain: MAPITTSRVEFDEIPTVVGIFSAFGLVFTVSLFAWICCQRRSAKSNKTPPYKFVHVLKGVDIYPENLSSKKKFGGDDKSEAKRKAALPNLSLHLDLEKRDLNGNFPKTNPKAGSSSDLENVTPKLFPETEKEAVSPESLKSSTSLTSEEKQEKLGTLFLSLEYNFEKKAFVVNIKEAQGLPAMDEQSMTSDPYIKMTILPEKKHKVKTRVLRKTLDPVFDETFTFYGVPYPHIQELSLHFTVLSFDRFSRDDVIGEVLVPLSGIELSDGKMLMTREIIKRNAKKSSGRGELLVSLCYQSTTNTLTVVVLKARHLPKSDVSGLSDPYVKVNLYHAKKRISKKKTHVKKCTPNAVFNELFVFDIPCESLEEISVEFLVLDSERGSRNEVIGRLVLGATAEGSGGGHWKEICDFPRRQIAKWHMLCDG
Which binding does the source give for B6 here?
The binding was “binds”.

B7: Glia maturation factor beta (protein, UniProt Q63228 1-142)
chain: MSESLVVCDVAEDLVEKLRKFRFRKETHNAAIIMKIDKDKRLVVLDEELEGVSPDELKDELPERQPRFIVYSYKYQHDDGRVSYPLCFIFSSPLGCKPEQQMMYAGSKNKLVQTAELTKVFEIRNTEDLTEEWLREKLGFFH
For B7, which binding is on record?
The binding was “binds”.
